Assay results from patent US20200057058A1.
These are yes or no findings as the source states them, for the method shown. Some binding calls cover weakened binding; strength is not graded here.

What was measured:
streptavidin [1] = biological target: streptavidin (UniProt P22629); experiment: fluorescent binding assay, labeled SA in 50% urine on the monolayer, 4 h exposure
streptavidin [2] = biological target: streptavidin (UniProt P22629); experiment: sandwich assay: SA in 50% urine captured on the monolayer, detected with biotin-HRP and TMB, absorbance at 450 nm
streptavidin [3] = biological target: streptavidin (UniProt P22629); experiment: fluorescent binding assay, labeled SA in PBS on the monolayer, 4 h exposure
streptavidin [4] = biological target: streptavidin (UniProt P22629); experiment: fluorescent diffusion assay: monolayer exposed to 10 µM labeled SA for 0.5-8 h, rinsed
streptavidin [5] = biological target: streptavidin (UniProt P22629); experiment: fluorescent time-course assay, labeled SA on monolayer
streptavidin [6] = biological target: streptavidin (UniProt P22629); experiment: fluorescent binding assay, labeled SA in 50% blood serum on the monolayer, 4 h exposure
streptavidin [7] = biological target: streptavidin (UniProt P22629); experiment: sandwich assay: SA in PBS captured on the monolayer, detected with biotin-HRP and TMB, absorbance at 450 nm
streptavidin [8] = biological target: streptavidin (UniProt P22629); experiment: fluorescent binding assay: Alexa Fluor 647-labeled streptavidin applied to the monolayer, rinsed, fluorescence microscopy
streptavidin [9] = biological target: streptavidin (UniProt P22629); experiment: sandwich assay: SA in 50% blood serum captured on the monolayer, detected with biotin-HRP and TMB, absorbance at 450 nm

binding (streptavidin [1]): binds
binding (streptavidin [2]): binds
binding (streptavidin [3]): binds
binding (streptavidin [4]): binds
binding (streptavidin [5]): binds
binding (streptavidin [6]): binds
binding (streptavidin [7]): binds
binding (streptavidin [8]): binds
binding (streptavidin [9]): binds
B1: rcSso7d.SA monolayer (designed binder)
chain: MGSIHHHHHHSSGLVPRGSHMCATVKFTYQGEEKQVDISKIKIVARDGQYIDFKYDEGGGAYGYGWVSEKDAPKELLQMLEKQ
modifications: EDC/NHS-activated protein coupled to an amine-functionalized silicon wafer
